# PubChem BioAssay AID1224831 | NIAID – 2016
# Aim: 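Confirming genome-wide hits on LPS-triggered TNF-alpha induction with independent siRNA sequences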 (follow-up of hits)
# System: human THP-1 B5 monocytic leukaemia cells carrying a TNF promoter luciferase reporter, made macrophage-like with PMA
# Reagents: single siRNA against human genes, 50 nM
# Timing: about 68 h of knock-down, then 4 h LPS
# Conditions: LPS (Salmonella minnesota, TLR-grade) at 10 ng/ml for 4 h; PMA 5 ng/ml present during knock-down
# Detection: 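Firefly to renilla luciferase ratio of a TNF promoter reporter after 4 h LPS, scaled to plate median, turned into robust z-score, averaged over replicates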
# Direction: TNF reporter z-score: higher = stronger LPS-induced TNF reporter signal; z-score, median over gene's siRNAs: higher = stronger TNF reporter signal across the gene's siRNAs
# Call rule: 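Active when the replicate mean z-score is about -1 or lower, or about 1.5 or higher; lowered and raised TNF reporter signal both count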
# Calls: active = changed TNF reporter (either direction); inactive = little change
# This is an unselected part of about 3,500 reagents. Of all reagents, 731 (21%) got an active call. 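Active means either lowered or raised reporter signal; the gene-median score did not drive the per-siRNA calls.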 The numbers tell different reagents against one gene apart.
gene,reagent no.,"TNF reporter z-score, replicate mean","z-score, median over gene's siRNAs",call
SLC13A4,1,-0.44,0.105,inactive
SLC13A4,2,-1.56,0.105,active
SLC13A4,3,1.65,0.105,active
SLC13A4,4,0.65,0.105,inactive
SLC13A4,5,-0.88,0.105,inactive
SLC13A4,6,3.82,0.105,active
EEF1A2,1,0.8,0.33,inactive
EEF1A2,2,-0.5,0.33,inactive
EEF1A2,3,-0.14,0.33,inactive
EEF1A2,4,3.77,0.33,active
EEF1A2,5,-0.39,0.33,inactive
EEF1A2,6,1.93,0.33,active
MYBL2,1,-0.33,0.44,inactive
MYBL2,2,0.63,0.44,inactive
MYBL2,3,0.42,0.44,inactive
MYBL2,4,0.73,0.44,inactive
MYBL2,5,-1.21,0.44,active
MYBL2,6,0.46,0.44,inactive
BLOC1S3,1,1.36,-0.12,inactive
BLOC1S3,2,-0.49,-0.12,inactive
BLOC1S3,3,-0.29,-0.12,inactive
BLOC1S3,4,0.05,-0.12,inactive
BLOC1S3,5,0.9,-0.12,inactive
BLOC1S3,6,-0.73,-0.12,inactive
CT47A1,1,0.53,0.235,inactive
CT47A1,2,0.49,0.235,inactive
CT47A1,3,-0.07,0.235,inactive
CT47A1,4,4.55,0.235,active
CT47A1,5,-0.02,0.235,inactive
CT47A1,6,-0.09,0.235,inactive
GPR15LG,1,-0.07,-0.56,inactive
GPR15LG,2,-1.84,-0.56,active
GPR15LG,3,-1.81,-0.56,active
GPR15LG,4,-0.7,-0.56,inactive
GPR15LG,5,0.35,-0.56,inactive
GPR15LG,6,-0.42,-0.56,inactive
ALG5,1,-0.18,-0.2,inactive
ALG5,2,1.43,-0.2,inactive
ALG5,3,-1.72,-0.2,active
ALG5,4,-0.86,-0.2,inactive
ALG5,5,-0.22,-0.2,inactive
ALG5,6,2.29,-0.2,active
DMRTC1,1,-0.13,-0.36,inactive
DMRTC1,2,-0.63,-0.36,inactive
DMRTC1,3,-0.53,-0.36,inactive
DMRTC1,4,-0.19,-0.36,inactive
DMRTC1,5,2.82,-0.36,active
DMRTC1,6,-0.76,-0.36,inactive
RNF214,1,-0.1,0.045,inactive
RNF214,2,-1.33,0.045,active
RNF214,3,0.68,0.045,inactive
RNF214,4,1.72,0.045,active
RNF214,5,0.19,0.045,inactive
RNF214,6,-0.24,0.045,inactive
ATP6V0E1,1,-0.45,-0.6,inactive
ATP6V0E1,2,-1.04,-0.6,active
ATP6V0E1,3,-0.92,-0.6,inactive
ATP6V0E1,4,-0.43,-0.6,inactive
ATP6V0E1,5,-0.47,-0.6,inactive
ATP6V0E1,6,-0.73,-0.6,inactive
CEP20,1,-0.79,-0.23,inactive
CEP20,2,0.05,-0.23,inactive
CEP20,3,1.14,-0.23,inactive
CEP20,4,-0.19,-0.23,inactive
CEP20,5,-0.27,-0.23,inactive
CEP20,6,-0.64,-0.23,inactive
TMEM176B,1,0.42,0.13,inactive
TMEM176B,2,0.05,0.13,inactive
TMEM176B,3,0.02,0.13,inactive
TMEM176B,4,0.21,0.13,inactive
TMEM176B,5,1.46,0.13,inactive
TMEM176B,6,-0.84,0.13,inactive
CCNQ,1,-0.15,-0.055,inactive
CCNQ,2,0.51,-0.055,inactive
CCNQ,3,0.04,-0.055,inactive
CCNQ,4,-0.59,-0.055,inactive
CCNQ,5,-0.96,-0.055,inactive
CCNQ,6,1.06,-0.055,inactive
SPSB3,1,-0.32,-0.49,inactive
SPSB3,2,-0.7,-0.49,inactive
SPSB3,3,-0.04,-0.49,inactive
SPSB3,4,-1.26,-0.49,active
SPSB3,5,-0.66,-0.49,inactive
SPSB3,6,-0.2,-0.49,inactive
KRTAP12-4,1,0.53,-0.075,inactive
KRTAP12-4,2,1.33,-0.075,inactive
KRTAP12-4,3,0.17,-0.075,inactive
KRTAP12-4,4,-1.63,-0.075,active
KRTAP12-4,5,-0.56,-0.075,inactive
KRTAP12-4,6,-0.32,-0.075,inactive
RPIA,1,0.83,-0.085,inactive
RPIA,2,-0.8,-0.085,inactive
RPIA,3,0.41,-0.085,inactive
RPIA,4,0.79,-0.085,inactive
RPIA,5,-1.24,-0.085,active
RPIA,6,-0.58,-0.085,inactive
PIWIL1,1,-0.26,0.345,inactive
PIWIL1,2,0.17,0.345,inactive
PIWIL1,3,0.46,0.345,inactive
PIWIL1,4,1.65,0.345,active
PIWIL1,5,0.23,0.345,inactive
PIWIL1,6,0.77,0.345,inactive
ARL8B,1,-1.6,-0.13,active
ARL8B,2,-1.4,-0.13,active
ARL8B,3,0.39,-0.13,inactive
ARL8B,4,-0.18,-0.13,inactive
ARL8B,5,-0.08,-0.13,inactive
ARL8B,6,0.03,-0.13,inactive

In a second layout: results already given
gene | reagent no. | TNF reporter z-score, replicate mean | z-score, median over gene's siRNAs | call
SLC13A4 | 2 | -1.56 | 0.105 | active
SLC13A4 | 3 | 1.65 | 0.105 | active
SLC13A4 | 4 | 0.65 | 0.105 | inactive
SLC13A4 | 5 | -0.88 | 0.105 | inactive
SLC13A4 | 6 | 3.82 | 0.105 | active
EEF1A2 | 1 | 0.8 | 0.33 | inactive
EEF1A2 | 2 | -0.5 | 0.33 | inactive
EEF1A2 | 3 | -0.14 | 0.33 | inactive
EEF1A2 | 4 | 3.77 | 0.33 | active
